Results are given in words; binding and its absence hold for the method and conditions named. In cells and extracts the contact can be indirect. Some results given as binding are weak or reduced against the parent protein; the word gives no strength.
Target: full-length his-tagged TRPM8 (UniProt Q7Z2W7)
Assay: co-IP; PC3-TRPM8 cells transfected with peGFP-AR (wild-type, 23 or Q640X); lysate (1% Triton X-100, 1% sodium deoxycholate, 150 mM NaCl) incubated overnight at 4 °C with His-tag beads in IP buffer (20 mM NaH2PO4, 150 mM NaCl, pH 8); AR detected with anti-GFP; cells treated with vehicle or 1, 10, 100 nM testosterone for 20 min (wild type: decrease by 58.2%-68.4% at 10-100 nM)

Amino acid sequences for entries named in this document (tags omitted). A change or cut given only in a name is not applied to a line headed by its entry.
UniProt Q7Z2W7: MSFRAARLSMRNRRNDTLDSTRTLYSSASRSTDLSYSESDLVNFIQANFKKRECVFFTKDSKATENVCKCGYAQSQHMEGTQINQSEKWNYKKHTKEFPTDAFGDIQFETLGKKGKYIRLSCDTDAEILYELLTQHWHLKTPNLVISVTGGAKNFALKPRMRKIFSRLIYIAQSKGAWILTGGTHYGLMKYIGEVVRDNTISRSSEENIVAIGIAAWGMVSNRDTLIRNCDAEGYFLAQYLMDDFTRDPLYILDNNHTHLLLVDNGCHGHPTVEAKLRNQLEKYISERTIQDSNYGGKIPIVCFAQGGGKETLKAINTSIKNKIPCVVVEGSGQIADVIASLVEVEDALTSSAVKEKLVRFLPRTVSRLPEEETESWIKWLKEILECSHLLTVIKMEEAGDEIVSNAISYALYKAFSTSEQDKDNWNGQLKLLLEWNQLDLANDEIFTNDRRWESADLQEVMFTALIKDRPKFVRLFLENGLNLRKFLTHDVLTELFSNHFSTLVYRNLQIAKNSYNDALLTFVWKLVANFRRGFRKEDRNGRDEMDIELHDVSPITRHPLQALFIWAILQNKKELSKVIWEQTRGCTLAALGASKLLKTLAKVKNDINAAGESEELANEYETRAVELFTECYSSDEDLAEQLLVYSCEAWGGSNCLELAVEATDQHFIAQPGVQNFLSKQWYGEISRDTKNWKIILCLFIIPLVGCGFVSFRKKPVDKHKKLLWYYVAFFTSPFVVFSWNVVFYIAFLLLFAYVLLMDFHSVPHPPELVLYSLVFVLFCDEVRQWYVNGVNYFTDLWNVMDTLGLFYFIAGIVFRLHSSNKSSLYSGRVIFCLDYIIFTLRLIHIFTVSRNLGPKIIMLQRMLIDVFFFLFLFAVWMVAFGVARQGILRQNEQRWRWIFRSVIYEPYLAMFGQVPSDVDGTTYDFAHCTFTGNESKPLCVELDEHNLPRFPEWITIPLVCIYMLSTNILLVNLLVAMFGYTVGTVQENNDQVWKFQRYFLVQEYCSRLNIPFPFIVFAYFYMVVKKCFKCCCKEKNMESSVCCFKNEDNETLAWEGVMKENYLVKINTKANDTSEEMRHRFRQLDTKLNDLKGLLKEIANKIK
UniProt P10275: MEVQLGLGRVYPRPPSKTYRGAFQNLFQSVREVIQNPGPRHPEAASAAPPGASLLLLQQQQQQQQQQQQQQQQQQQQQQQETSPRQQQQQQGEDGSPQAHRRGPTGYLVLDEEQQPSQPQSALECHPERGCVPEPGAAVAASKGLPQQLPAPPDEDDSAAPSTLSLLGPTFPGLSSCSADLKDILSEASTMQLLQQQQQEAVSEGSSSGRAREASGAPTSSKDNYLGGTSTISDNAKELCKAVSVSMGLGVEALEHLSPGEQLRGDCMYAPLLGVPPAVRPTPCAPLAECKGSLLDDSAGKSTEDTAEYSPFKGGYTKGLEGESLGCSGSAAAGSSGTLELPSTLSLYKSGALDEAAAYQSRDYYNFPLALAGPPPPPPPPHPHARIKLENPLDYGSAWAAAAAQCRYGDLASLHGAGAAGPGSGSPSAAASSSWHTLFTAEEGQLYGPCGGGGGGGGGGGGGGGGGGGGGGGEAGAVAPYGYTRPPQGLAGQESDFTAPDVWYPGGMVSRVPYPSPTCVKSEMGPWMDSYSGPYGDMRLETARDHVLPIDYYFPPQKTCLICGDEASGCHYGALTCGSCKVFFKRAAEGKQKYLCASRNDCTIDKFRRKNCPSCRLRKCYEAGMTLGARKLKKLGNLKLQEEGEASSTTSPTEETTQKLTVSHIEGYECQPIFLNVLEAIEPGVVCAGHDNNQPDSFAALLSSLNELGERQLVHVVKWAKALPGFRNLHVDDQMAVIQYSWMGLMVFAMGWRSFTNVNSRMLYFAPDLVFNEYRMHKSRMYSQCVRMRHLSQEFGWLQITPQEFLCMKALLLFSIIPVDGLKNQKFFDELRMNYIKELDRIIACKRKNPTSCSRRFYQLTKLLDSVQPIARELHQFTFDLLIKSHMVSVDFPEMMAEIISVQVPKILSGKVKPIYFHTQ

Substance	binding
GFP-labeled AR (wild type) (from UniProt P10275 1-920)	binds
nuclear AR mutant ARQ640X-GFP (from UniProt P10275 1-639) (domain or fragment)	no binding
